Results are given in words; binding and its absence hold for the method and conditions named. In cells and extracts the contact can be indirect. Some binding calls cover weakened binding; strength is not graded here.
Target: T1, CARM1 (human (endogenous in MDA-MB-134)) (UniProt Q86X55)
T1 sequence: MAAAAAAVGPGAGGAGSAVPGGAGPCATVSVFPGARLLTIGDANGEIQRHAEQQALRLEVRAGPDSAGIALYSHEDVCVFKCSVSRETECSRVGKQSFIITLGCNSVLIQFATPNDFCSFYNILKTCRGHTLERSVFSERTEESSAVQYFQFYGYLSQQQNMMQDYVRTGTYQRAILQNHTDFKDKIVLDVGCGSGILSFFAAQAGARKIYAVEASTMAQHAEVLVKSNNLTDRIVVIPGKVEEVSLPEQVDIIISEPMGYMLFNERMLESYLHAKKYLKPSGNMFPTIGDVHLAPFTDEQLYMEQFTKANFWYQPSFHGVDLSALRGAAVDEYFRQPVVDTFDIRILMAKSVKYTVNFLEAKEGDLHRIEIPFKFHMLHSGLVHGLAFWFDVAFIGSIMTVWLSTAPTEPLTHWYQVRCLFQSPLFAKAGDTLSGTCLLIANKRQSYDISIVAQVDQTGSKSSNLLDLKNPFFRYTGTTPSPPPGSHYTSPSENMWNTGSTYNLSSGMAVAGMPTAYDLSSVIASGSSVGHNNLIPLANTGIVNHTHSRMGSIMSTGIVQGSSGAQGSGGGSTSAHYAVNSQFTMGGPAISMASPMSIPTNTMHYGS
Experiment: co-IP; endogenous proteins; MDA-MB-134 cells treated with DMSO, 100 nM E2 or FI (10 uM forskolin, 100 uM IBMX) for 1 h; 2 mg lysate (10 mM Tris-HCl pH 7.5, 50 mM NaCl, 1 mM EDTA, 1 mM DTT, 10% glycerol, 10 mM Na-molybdate) on protein G-dynabeads pre-coated with antibody against ERα or CARM1 or control IgG, overnight at 4°C; immunoblot

Protein sequences, listed by entry. Tags and fused reporters are not part of them.
UniProt P03372: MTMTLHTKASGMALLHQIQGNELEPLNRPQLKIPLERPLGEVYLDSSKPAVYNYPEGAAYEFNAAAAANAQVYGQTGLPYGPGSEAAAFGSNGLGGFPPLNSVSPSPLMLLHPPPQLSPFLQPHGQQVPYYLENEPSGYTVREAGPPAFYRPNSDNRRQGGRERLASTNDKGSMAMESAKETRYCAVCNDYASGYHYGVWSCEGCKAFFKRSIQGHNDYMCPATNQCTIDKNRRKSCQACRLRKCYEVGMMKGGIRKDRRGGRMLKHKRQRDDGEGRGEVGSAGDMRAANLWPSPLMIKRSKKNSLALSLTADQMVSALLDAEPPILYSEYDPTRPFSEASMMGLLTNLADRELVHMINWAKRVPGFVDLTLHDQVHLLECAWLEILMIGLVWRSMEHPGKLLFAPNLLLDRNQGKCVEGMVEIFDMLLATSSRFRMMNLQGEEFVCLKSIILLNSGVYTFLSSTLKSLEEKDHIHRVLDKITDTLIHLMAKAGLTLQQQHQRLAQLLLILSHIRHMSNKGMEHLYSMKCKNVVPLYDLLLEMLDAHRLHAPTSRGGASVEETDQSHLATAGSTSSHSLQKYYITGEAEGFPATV

binding: binds
Substance: estrogen receptor α (ERα) (from UniProt P03372 1-595)

Reference: paper PMC6238530
